The target in the assay is Cyclin D1 (CCND1) (human (endogenous in IMR90)) (UniProt P24385). Description: co-IP; immunoprecipitation from senescent IMR90 lysate (EBC100: 50 mM Tris-HCl pH 8.0, 100 mM NaCl, 0.5% NP-40) with antibody on Dynabeads Protein G, overnight at 4 °C, five washes with NETN buffer, Western blot.

Protein sequences, listed by entry. Tags and fused reporters are not part of them.
UniProt P24385: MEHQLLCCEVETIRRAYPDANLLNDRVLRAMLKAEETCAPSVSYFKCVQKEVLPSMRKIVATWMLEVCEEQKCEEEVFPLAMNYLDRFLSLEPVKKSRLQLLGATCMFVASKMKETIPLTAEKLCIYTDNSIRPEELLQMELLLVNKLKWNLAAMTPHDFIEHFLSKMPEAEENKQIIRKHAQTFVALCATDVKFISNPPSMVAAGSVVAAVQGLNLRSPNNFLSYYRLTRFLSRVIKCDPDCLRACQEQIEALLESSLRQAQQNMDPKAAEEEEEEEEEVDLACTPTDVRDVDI
UniProt P38936: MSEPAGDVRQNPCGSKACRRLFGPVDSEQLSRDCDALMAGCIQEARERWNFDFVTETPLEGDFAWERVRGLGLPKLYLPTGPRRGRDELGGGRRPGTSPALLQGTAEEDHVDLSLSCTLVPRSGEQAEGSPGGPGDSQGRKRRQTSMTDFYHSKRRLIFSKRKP

Binding data for one substance are collected here from doi:10.1101/2025.08.01.668243.

Results are given in words; binding and its absence hold for the method and conditions named. In cells and extracts the contact can be indirect. Some binding calls cover weakened binding; strength is not graded here.

Turning to CDKN1A (from UniProt P38936 1-164), the binding result is given as “binds”.
